Experimental data reported in PubChem BioAssay AID2685 (National Center for Advancing Translational Sciences (NCATS), 2010).
This is one part of the list. The main result of the screen is listed elsewhere. These columns were measured beside it and carry no call. Compounds called inactive in the main read-out are mostly missing here. The note in brackets gives the kind of curve behind each potency; many fits are weak.

Assay: qHTS Assay for Lipid Storage Modulators in Drosophila S3 Cells;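 on cell number change: cells counted by Cell Tracker Red CMTPX staining in the red channel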
Conditions: BODIPY lipid droplet fluorescence, 18-24 h; for cell number change: measured here: cell count max response, cells fed with added oleic acid
In short: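 Drosophila S3 cells loaded with oleic acid (400 uM, as added) and compounds at several concentrations; lipid droplets imaged by 488-nm laser-scanning cytometry, 500–530 nm intensity and object ratio to cell channel. Percent activity normalized to 20 uM Triacsin C.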

[1] = measured here: lipid fluorescence (Fed channel) AC50, cells fed with added oleic acid
[2] = measured here: cell number channel AC50, cells fed with added oleic acid

SMILES	AC50 [1]	cell number change [%]	AC50 [2]
CC(C)CN(C(=O)CSc1nnc(-c2cccs2)n1N)c1c(N)n(Cc2ccccc2)c(=O)[nH]c1=O	20.6 µM [rising, single point]		
CN(CC(=O)O/N=C(\N)c1ccc([N+](=O)[O-])cc1)S(=O)(=O)c1ccccc1	0.82 µM [rising, single point]		
CC(C)CCNC(=O)NC(=O)CSc1ncccn1		74.6	10.3 µM [rising, partial curve]
Cc1cc(C(=O)OCC(=O)c2c(N)n(C)c(=O)n(C)c2=O)c(C)o1	0.731 µM [falling, single point]	26.3	
COc1ccc(NC(=O)CN(Cc2ccccc2)S(C)(=O)=O)c(OC)c1			0.651 µM [rising, single point]
Cc1ccc(NC(=O)COC(=O)CCc2nc3ccccc3c(=O)[nH]2)cc1Cl	0.517 µM [falling, full curve]	4.23	0.731 µM [falling, full curve, poor fit]
CCCNC(=O)OC[C@H]1O[C@H](CCO/N=C/[C@@H](OC)[C@H](C)/C=C/CC(=O)OC)C=C[C@@H]1Oc1ccc(OC)cc1	2.06 µM [rising, partial curve]	2	
Cc1nc(SCC(=O)NC2CCS(=O)(=O)C2)c(C#N)c(C)c1C (stereo not given)	2.06 µM [rising, partial curve, poor fit]	3.74	3.26 µM [rising, partial curve, poor fit]
Cc1ccc(N2C(N)=C(C#N)C3(C(=O)N(C)c4ccccc43)C3=C2CC(C)(C)CC3=O)cc1Cl (stereo not given)	0.00731 µM [falling, full curve, poor fit]	-7.9	6.51 µM [falling, single point]
CCOC(=O)C1=C(CN2CCN(CCC#N)CC2)NC(=O)NC1c1ccc2c(c1)OCO2 (stereo not given)	20.6 µM [rising, single point]	28.3	0.82 µM [rising, full curve, poor fit]
CC(C)Cc1csc(NC(=O)C(C)C)c1C(=O)O		4.27	
CON1C(=O)C(=O)N(OC)C(C)(C)C1(C)C		-10.9	0.206 µM [falling, full curve]
COc1cccc(C2=Nc3cccc4cccc(c34)N2)c1		44.8	29.1 µM [rising, single point]
CSc1cccc(CNC(=O)C2CCC(=O)N(Cc3cccc(C(F)(F)F)c3)C2)c1 (stereo not given)	6.51 µM [falling, single point]	-2.45	
COc1cc(Cl)c(C)cc1NC(=O)CCCn1c(=O)oc2ccccc21		24.6	
Cc1ccc(S(=O)(=O)c2c(N)n(/N=C/c3ccco3)c3nc4ccccc4nc23)cc1C	0.58 µM [falling, full curve]	1.57	
N/C(=N\c1nc2c(c(=O)[nH]1)CCCC2)Nc1ccccc1Sc1ccccc1	1.3 µM [falling, full curve, poor fit]	7.77	
CC(C)c1nc(N2CCOCC2)c(C#N)c2c1CCCC2	32.6 µM [falling, single point]	-43.6	29.1 µM [falling, partial curve]
CCc1ccc(-c2ccc(SCC(=O)NCC3CCCO3)nn2)cc1 (stereo not given)	0.651 µM [falling, single point]	-0.469	0.259 µM [falling, partial curve]
NC(=O)c1ccc(NCC2COc3ccccc3O2)c([N+](=O)[O-])c1 (stereo not given)			0.164 µM [rising, full curve, poor fit]

SMILES	AC50 [1]	cell number change [%]	AC50 [2]
Cn1c(-c2ccc(Cl)nc2)nc2ccccc21		-29.4	
O=C(O)c1ccn(CSc2cc(Cl)ccc2Cl)n1	0.0058 µM [rising, full curve, poor fit]	-1.07	
CC(=O)Nc1ccc(-c2csc(N/N=C\c3ccncc3)n2)cc1	0.651 µM [rising, single point]	-1.45	
CN1CCCC(OC(=O)c2ccccc2F)C1 (stereo not given)		21.4	
CC(C)(C)c1ccc(OCC(=O)Nc2ccncc2)c(Br)c1		-50	13 µM [falling, partial curve]
CCCCc1nnc(NC(=O)CSc2nc(=O)cc(N)n2-c2ccccc2)s1	25.9 µM [falling, single point]	-30.1	3.26 µM [falling, full curve]
CCc1cccc2c(C(=O)CN3C(=O)NC4(CCCCCC4)C3=O)c[nH]c12		35.3	29.1 µM [rising, single point]
CC1CCN(Cc2cc(=O)oc3cc(O)c(Cl)cc23)CC1	0.651 µM [falling, single point]	-17	
CC1CN(C(=O)CCNC(=O)c2ccc(Cl)cc2)CC(C)O1 (stereo not given)	29.1 µM [rising, single point]	-1.17	
Cc1ccc2[nH]c(C(=O)N/N=C/c3ccc([N+](=O)[O-])cc3)c(C)c2c1			2.91 µM [rising, single point]
O=C(COc1ccc(C(=S)N2CCCC2)cc1)Nc1ccc(F)cc1	0.58 µM [rising, single point]		
CCOC(=O)c1ccccc1NC(=O)c1cc2sccc2n1C			6.51 µM [rising, single point]
CCC(=O)c1ccc(OCC(=O)OCC(=O)NCCCc2ccccc2)cc1	3.26 µM [rising, full curve, poor fit]	25	
Cc1cc(C)n(CCc2nc3c4ccccc4n(CC#N)c(=O)n3n2)n1			3.26 µM [rising, partial curve]
O=C(c1cc(-c2ccccn2)nc2c(Cl)cccc12)N1CCN(C(=O)C2CCCO2)CC1 (stereo not given)		-12.1	
O=Cc1cn(Cc2ccccc2)nc1-c1cccnc1	5.17 µM [rising, full curve, poor fit]	18.2	
O=C(Nc1nnc(-c2ccccc2F)s1)C1CCN(S(=O)(=O)c2ccc(Cl)cc2)CC1	0.58 µM [rising, full curve, poor fit]	7.88	
COC(=O)CN(c1c(C)cccc1C)S(C)(=O)=O	2.31 µM [falling, full curve]	-27.4	
COC(=O)c1ccsc1NC(=O)CCc1ccccc1	32.6 µM [rising, single point]	12.2	
Cc1cccc(N2CCN(Cc3nc(CC4CC4)no3)CC2)n1	11.6 µM [rising, partial curve, poor fit]	16.2	

SMILES	AC50 [1]	cell number change [%]	AC50 [2]
COc1ccc(S(=O)(=O)N(C)c2ccc(C(=O)N3CCOCC3)cc2)cc1	0.651 µM [falling, partial curve, poor fit]	-18.5	0.146 µM [falling, full curve, poor fit]
CCN(CC)S(=O)(=O)c1cc(C(=O)O)ccc1Cl	20.6 µM [falling, single point]	0.676	
O=C(c1cc([N+](=O)[O-])ccc1Cl)N1c2ccccc2Sc2ccccc21	5.8 µM [rising, full curve]	-14.7	
CN(C)S(=O)(=O)c1ccc(=S)[nH]c1	0.164 µM [falling, full curve, poor fit]	-18.4	
O=C1C2C3CCC(C3)C2C(=O)N1CNc1ccc(F)cc1 (stereo not given)	1.03 µM [falling, full curve]	-48.9	14.6 µM [falling, single point]
COc1ccc(NS(=O)(=O)c2cccc(C(=O)N/N=C/c3cccs3)c2)cc1	5.8 µM [falling, full curve]	11.4	
Cc1cc(C)nc(Sc2c(C)n[nH]c2C)n1	4.11 µM [rising, single point]	-12.4	
Cc1ccc(-c2nc(SCC(=O)NCC3CCCO3)c(-c3ccc(C)cc3)[nH]2)cc1 (stereo not given)	7.31 µM [rising, single point]		
Cc1ccc(S(=O)(=O)N2CCCC2)cc1C(=O)NCCOc1ccccc1	2.06 µM [falling, partial curve, poor fit]	-11.4	
COc1cn(-c2ccccc2)nc1C(=O)NCc1ccc(C)cc1		-9.07	
COC(=O)C(NC(C)=O)(Nc1nc(C)cs1)C(F)(F)F (stereo not given)	0.00651 µM [falling, full curve]	11	
CC1CCc2sc(C(=O)NN=C3CCC(c4ccccc4)CC3)cc2C1 (stereo not given)	29.1 µM [rising, single point]	30.3	13 µM [rising, partial curve, poor fit]
CC1=Nn2c(nnc2-c2cc(C)[nH]n2)SC1		3.7	
On1ccccc1=S	23.1 µM [falling, partial curve]	-33.5	18.4 µM [falling, partial curve, poor fit]
O=C(CC1C(=O)NCCN1Cc1cccc(F)c1)NC1CCC1 (stereo not given)	5.01 µM [rising, partial curve, poor fit]	34.4	11.2 µM [rising, partial curve, poor fit]
CCCCC/C(=N\NC(=O)CCC(=O)NCc1ccccc1)c1ccccc1	2.31 µM [falling, full curve]	-75.6	2.91 µM [falling, full curve]
C/C(=N\NC(=O)c1ccc(-n2cnnn2)cc1)c1ccc(Cl)cc1	29.1 µM [rising, single point]	18.1	
O=C(OCC(=O)N1CCOCC1)c1ccccc1Br	29.1 µM [rising, single point]	-8.73	
CC(=O)c1cccc(N(CC(=O)NC2CCCC2)C(=O)c2ccc(C)s2)c1		-7.62	4.11 µM [rising, partial curve, poor fit]

As entered above.
For cell number change [%], O=C1C2C3CCC(C3)C2C(=O)N1CNc1ccc(F)cc1 (stereo not given) has the entry -48.9
For AC50 [1], O=C(OCC(=O)N1CCOCC1)c1ccccc1Br has the entry 29.1 µM [rising, single point]
For AC50 [1], COC(=O)C(NC(C)=O)(Nc1nc(C)cs1)C(F)(F)F (stereo not given) has the entry 0.00651 µM [falling, full curve]
